Experimental data: the supplement of paper PMC10849652
The list shows a part of the results.

Protein sequences, listed by entry. Tags and fused reporters are not part of them. Lines headed by an entry give the natural chain unless they say otherwise; changes in a name come on top.
UniProt O14908: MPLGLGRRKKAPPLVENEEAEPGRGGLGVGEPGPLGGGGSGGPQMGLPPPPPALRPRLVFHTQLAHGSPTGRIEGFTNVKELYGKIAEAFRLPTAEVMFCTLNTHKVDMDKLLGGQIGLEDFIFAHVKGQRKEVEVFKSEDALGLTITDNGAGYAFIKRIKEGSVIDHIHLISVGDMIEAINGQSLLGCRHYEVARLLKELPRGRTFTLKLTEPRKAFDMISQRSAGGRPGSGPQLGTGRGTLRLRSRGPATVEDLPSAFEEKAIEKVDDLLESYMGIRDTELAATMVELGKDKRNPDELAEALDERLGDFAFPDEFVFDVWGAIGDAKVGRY
UniProt O76003: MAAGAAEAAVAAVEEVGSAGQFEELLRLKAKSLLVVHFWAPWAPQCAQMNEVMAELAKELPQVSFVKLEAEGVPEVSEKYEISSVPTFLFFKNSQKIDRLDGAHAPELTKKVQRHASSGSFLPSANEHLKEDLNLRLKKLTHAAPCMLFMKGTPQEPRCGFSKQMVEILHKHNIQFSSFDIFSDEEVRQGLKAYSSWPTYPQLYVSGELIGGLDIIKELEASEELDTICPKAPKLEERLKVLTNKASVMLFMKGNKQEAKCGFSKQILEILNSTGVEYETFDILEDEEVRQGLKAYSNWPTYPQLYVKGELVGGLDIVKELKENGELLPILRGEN
UniProt P43304: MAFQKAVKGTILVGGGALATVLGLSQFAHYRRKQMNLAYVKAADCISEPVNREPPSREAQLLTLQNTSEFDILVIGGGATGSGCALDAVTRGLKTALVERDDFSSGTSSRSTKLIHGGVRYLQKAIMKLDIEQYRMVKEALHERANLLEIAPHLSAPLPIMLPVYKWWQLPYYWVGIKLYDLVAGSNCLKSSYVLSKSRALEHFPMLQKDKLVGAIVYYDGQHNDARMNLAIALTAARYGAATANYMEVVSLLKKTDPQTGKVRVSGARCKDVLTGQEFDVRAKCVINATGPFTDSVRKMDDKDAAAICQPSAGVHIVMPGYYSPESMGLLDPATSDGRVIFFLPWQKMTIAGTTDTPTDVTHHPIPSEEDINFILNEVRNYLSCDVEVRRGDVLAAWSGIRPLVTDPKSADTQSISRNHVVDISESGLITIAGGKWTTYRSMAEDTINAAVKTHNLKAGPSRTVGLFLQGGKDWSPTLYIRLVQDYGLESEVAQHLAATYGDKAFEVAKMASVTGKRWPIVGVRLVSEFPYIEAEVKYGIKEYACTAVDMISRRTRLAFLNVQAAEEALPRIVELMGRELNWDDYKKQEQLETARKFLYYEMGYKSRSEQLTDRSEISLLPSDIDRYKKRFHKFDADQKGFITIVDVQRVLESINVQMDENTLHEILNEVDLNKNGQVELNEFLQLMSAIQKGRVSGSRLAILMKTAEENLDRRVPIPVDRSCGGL
UniProt Q96IJ6: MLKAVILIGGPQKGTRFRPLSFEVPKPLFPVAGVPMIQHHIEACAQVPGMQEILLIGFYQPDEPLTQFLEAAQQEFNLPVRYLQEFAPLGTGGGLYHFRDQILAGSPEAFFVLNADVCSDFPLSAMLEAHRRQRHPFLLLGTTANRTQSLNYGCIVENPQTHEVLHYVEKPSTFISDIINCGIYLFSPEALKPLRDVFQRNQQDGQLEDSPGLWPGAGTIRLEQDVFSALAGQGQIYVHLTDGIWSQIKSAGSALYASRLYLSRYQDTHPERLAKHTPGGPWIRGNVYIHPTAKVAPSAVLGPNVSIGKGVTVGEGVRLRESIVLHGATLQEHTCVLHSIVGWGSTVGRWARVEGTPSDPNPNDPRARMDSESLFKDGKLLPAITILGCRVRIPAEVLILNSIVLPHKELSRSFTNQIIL
UniProt P15104, whole entry, looked up: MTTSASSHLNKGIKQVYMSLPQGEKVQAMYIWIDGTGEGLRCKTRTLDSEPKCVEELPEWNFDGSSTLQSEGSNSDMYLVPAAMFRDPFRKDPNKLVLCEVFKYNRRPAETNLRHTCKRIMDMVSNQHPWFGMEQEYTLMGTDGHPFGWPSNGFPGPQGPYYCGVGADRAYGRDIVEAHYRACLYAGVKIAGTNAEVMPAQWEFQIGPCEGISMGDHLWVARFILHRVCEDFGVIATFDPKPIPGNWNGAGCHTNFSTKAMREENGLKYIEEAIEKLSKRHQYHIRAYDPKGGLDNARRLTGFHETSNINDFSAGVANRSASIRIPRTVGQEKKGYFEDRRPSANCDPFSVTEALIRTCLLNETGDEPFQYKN
UniProt P60983, whole entry, looked up: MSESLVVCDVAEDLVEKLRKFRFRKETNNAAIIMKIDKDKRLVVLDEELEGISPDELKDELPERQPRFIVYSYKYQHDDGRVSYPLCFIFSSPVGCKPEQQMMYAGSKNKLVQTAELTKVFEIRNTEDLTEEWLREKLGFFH
UniProt P36959: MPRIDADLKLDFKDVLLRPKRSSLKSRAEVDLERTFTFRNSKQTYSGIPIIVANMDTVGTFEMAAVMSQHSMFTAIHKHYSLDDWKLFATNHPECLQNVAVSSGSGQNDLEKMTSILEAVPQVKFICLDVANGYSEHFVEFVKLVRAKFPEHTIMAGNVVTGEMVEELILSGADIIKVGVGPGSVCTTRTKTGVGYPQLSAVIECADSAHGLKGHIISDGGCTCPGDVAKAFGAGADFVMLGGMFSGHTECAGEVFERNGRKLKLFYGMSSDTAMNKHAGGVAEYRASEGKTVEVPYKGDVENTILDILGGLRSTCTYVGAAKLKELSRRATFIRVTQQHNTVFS
UniProt P17174: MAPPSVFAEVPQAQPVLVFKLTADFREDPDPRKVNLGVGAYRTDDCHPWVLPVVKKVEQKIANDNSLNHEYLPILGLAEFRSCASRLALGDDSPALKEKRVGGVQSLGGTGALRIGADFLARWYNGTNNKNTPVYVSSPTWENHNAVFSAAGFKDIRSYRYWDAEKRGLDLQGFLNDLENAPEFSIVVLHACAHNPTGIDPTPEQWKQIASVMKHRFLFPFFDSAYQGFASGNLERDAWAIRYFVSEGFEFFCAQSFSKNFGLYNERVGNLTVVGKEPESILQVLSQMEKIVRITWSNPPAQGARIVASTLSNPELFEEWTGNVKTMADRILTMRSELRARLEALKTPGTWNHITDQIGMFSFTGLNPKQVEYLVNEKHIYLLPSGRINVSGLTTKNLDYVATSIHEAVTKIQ

Tests used:
Assay in all cases: log2 fold change, soluble protein after heating vs DMSO (PISA); higher = thermal stabilisation; K562 lysate, 10 uM; active = over 0.2 and 3.5 SD of the protein, either way, in both replicates (recomputed)
alvocidib = compound: CN1CC[C@H](c2c(O)cc(O)c3c(=O)cc(-c4ccccc4Cl)oc23)[C@H](O)C1 [alvocidib]
Method in brief: (§1)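 Quantification was by TMTpro 16plex LC-MS/MS with equalised channel sums, applied to the supernatant after 21,000xg for 90 min. Samples were crude K562 extract at 1 mg/mL protein in PBS pH 7.4 with 1 mM MgCl2, treated with 10 μM compound for 30 min, heated for 3 min across 48°C-58°C, pooled and brought to 0.5% NP-40 at 4°C. Values are log-two fold changes in thermal stability relative to solvent controls, from duplicates.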

Tubastatin A = compound: CN1CCc2c(c3ccccc3n2Cc2ccc(C(=O)NO)cc2)C1 [Tubastatin A]
Method in brief: as §1

[1] = compound: CNC(=O)C1=CC=CC=C1NC2=NC(=NC=C2Cl)NC3=C(C=C(C=C3)N4CCOCC4)OC
Method in brief: as §1

defactinib = compound: CNC(=O)c1ccc(Nc2ncc(C(F)(F)F)c(NCc3nccnc3N(C)S(C)(=O)=O)n2)cc1 [defactinib]
Method in brief: as §1

[2] = compound: CNc1nc(-c2ccc3c(N)n[nH]c3c2)cc(N2C[C@@H](C(=O)NC3CCCCC3)CC[C@H]2C)n1
Method in brief: as §1

encorafenib = compound: COC(=O)N[C@@H](C)CNc1nccc(-c2cn(C(C)C)nc2-c2cc(Cl)cc(NS(C)(=O)=O)c2F)n1 [encorafenib]
Method in brief: as §1

[3] = compound: COC(=O)[C@H](CCSC)NC(=O)C1=C(C=C(C=C1)NC[C@H](CS)N)C2=CC=CC=C2
Method in brief: as §1

alisertib = compound: COc1cc(Nc2ncc3c(n2)-c2ccc(Cl)cc2C(c2c(F)cccc2OC)=NC3)ccc1C(=O)O [alisertib]
Method in brief: as §1

[4] = compound: COc1cc2nc(-c3cc(F)ccc3O)nc(N[C@@H]3CNC[C@H]3C(C)(C)O)c2cc1OC
Method in brief: as §1

gefitinib = compound: COc1cc2ncnc(Nc3ccc(F)c(Cl)c3)c2cc1OCCCN1CCOCC1 [gefitinib]
Method in brief: as §1

lapatinib = compound: CS(=O)(=O)CCNCc1ccc(-c2ccc3ncnc(Nc4ccc(OCc5cccc(F)c5)c(Cl)c4)c3c2)o1 [lapatinib]
Method in brief: as §1

pictilisib = compound: CS(=O)(=O)N1CCN(Cc2cc3nc(-c4cccc5[nH]ncc45)nc(N4CCOCC4)c3s2)CC1 [pictilisib]
Method in brief: as §1

crizotinib = compound: C[C@@H](Oc1cc(-c2cnn(C3CCNCC3)c2)cnc1N)c1c(Cl)ccc(F)c1Cl [crizotinib]
Method in brief: as §1

[5] = compound: C[C@H](C1=CC=C(C=C1)C(=O)NC2=C3C=CNC3=NC=C2)N
Method in brief: as §1

duvelisib = compound: C[C@H](Nc1ncnc2nc[nH]c12)c1cc2cccc(Cl)c2c(=O)n1-c1ccccc1 [duvelisib]
Method in brief: as §1

gandotinib = compound: Cc1cc(Nc2cc(CN3CCOCC3)c3nc(C)c(Cc4ccc(Cl)cc4F)n3n2)n[nH]1 [gandotinib]
Method in brief: as §1

tozasertib = compound: Cc1cc(Nc2cc(N3CCN(C)CC3)nc(Sc3ccc(NC(=O)C4CC4)cc3)n2)n[nH]1 [tozasertib]
Method in brief: as §1

doramapimod = compound: Cc1ccc(-n2nc(C(C)(C)C)cc2NC(=O)Nc2ccc(OCCN3CCOCC3)c3ccccc23)cc1 [doramapimod]
Method in brief: as §1

bafetinib = compound: Cc1ccc(NC(=O)c2ccc(CN3CC[C@H](N(C)C)C3)c(C(F)(F)F)c2)cc1Nc1nccc(-c2cncnc2)n1 [bafetinib]
Method in brief: as §1

[6] = compound: Cc1cccc(CC(=O)N2CCc3c2ccc(-c2cn(C)c4ncnc(N)c24)c3F)n1
Method in brief: as §1

Target | log2 fold change (alvocidib) | log2 fold change (Tubastatin A) | log2 fold change [1] | log2 fold change (defactinib) | log2 fold change [2] | log2 fold change (encorafenib) | log2 fold change [3] | log2 fold change (alisertib) | log2 fold change [4] | log2 fold change (gefitinib) | log2 fold change (lapatinib) | log2 fold change (pictilisib) | log2 fold change (crizotinib) | log2 fold change [5] | log2 fold change (duvelisib) | log2 fold change (gandotinib) | log2 fold change (tozasertib) | log2 fold change (doramapimod) | log2 fold change (bafetinib) | log2 fold change [6]
GIPC1 (UniProt O14908) | inactive: 0.012 | inactive: 0.007 | inactive: 0.01 | inactive: -0.022 | inactive: -0.032 | inactive: 0.012 | inactive: -0.009 | inactive: 0.009 | inactive: 0.041 | inactive: -0.012 | inactive: -0.023 | inactive: 0.005 | inactive: 0.037 | inactive: -0.092 | inactive: 0.051 | inactive: -0.01 | inactive: 0.036 | inactive: 0.021 | inactive: -0.03 | inactive: -0.014
GLRX3 (UniProt O76003) | inactive: 0.013 | inactive: -0.011 | inactive: 0.01 | inactive: -0.039 | inactive: 0.032 | inactive: -0.029 | inactive: -0.038 | inactive: 0.016 | inactive: 0.01 | inactive: -0.009 | inactive: -0.011 | inactive: -0.029 | inactive: 0.013 | inactive: 0.009 | inactive: 0.009 | inactive: 0.019 | inactive: -0.057 | inactive: -0.039 | inactive: -0.006 | inactive: -0.022
GPD2 (UniProt P43304) | inactive: -0.013 | inactive: 0.013 | inactive: 0.024 | inactive: 0.04 | inactive: 0 | inactive: 0.006 | inactive: -0.028 | inactive: -0.018 | inactive: 0 | inactive: 0.037 | inactive: 0.012 | inactive: -0.034 | inactive: 0.003 | inactive: 0.024 | inactive: 0.002 | inactive: 0.007 | inactive: 0.005 | inactive: 0.011 | inactive: 0.003 | inactive: 0.01
GMPPA (UniProt Q96IJ6) | inactive: -0.033 | inactive: 0.009 | inactive: 0.014 | inactive: -0.008 | inactive: 0.025 | inactive: 0.017 | inactive: 0.107 | inactive: 0.027 | inactive: 0.013 | inactive: -0.012 | inactive: -0.043 | inactive: -0.025 | inactive: -0.049 | inactive: -0.122 | inactive: -0.039 | inactive: 0.039 | inactive: 0.001 | inactive: 0.054 | inactive: 0.009 | inactive: 0.08
GLUL (UniProt P15104) | inactive: 0.011 | inactive: 0.015 | inactive: 0.034 | inactive: 0.027 | inactive: -0.125 | inactive: -0.002 | inactive: 0.029 | inactive: 0.002 | inactive: -0.019 | inactive: -0.004 | inactive: 0.04 | inactive: 0.015 | inactive: 0.066 | active: 0.213 | inactive: 0.019 | inactive: -0.093 | inactive: -0.026 | inactive: 0.014 | inactive: 0.013 | inactive: -0.147
GMFB (UniProt P60983) | inactive: 0.009 | inactive: 0.02 | inactive: -0.007 | inactive: 0.033 | inactive: -0.052 | inactive: 0.056 | inactive: -0.067 | inactive: 0.043 | inactive: 0.016 | inactive: -0.033 | inactive: -0.023 | inactive: -0.019 | inactive: 0.041 | inactive: -0.002 | inactive: 0.018 | inactive: -0.003 | inactive: 0.032 | inactive: -0.007 | inactive: 0.011 | inactive: -0.04
GORASP2 isoform 3 (UniProt Q9H8Y8) | inactive: -0.027 | inactive: -0.029 | inactive: -0.016 | inactive: -0.029 | inactive: -0.008 | inactive: 0.032 | inactive: 0.062 | inactive: 0.011 | inactive: -0.024 | inactive: 0.006 | inactive: -0.001 | inactive: 0.014 | inactive: -0.022 | inactive: -0.15 | inactive: 0.005 | inactive: 0.048 | inactive: 0.024 | inactive: 0.036 | inactive: -0.021 | inactive: 0.131
GMPR (UniProt P36959) | inactive: 0.07 | inactive: 0.092 | inactive: 0.005 | inactive: -0.017 | inactive: 0.084 | inactive: -0.01 | inactive: -0.004 | inactive: -0.024 | inactive: -0.014 | inactive: -0.05 | inactive: 0.012 | inactive: -0.029 | inactive: 0.05 | inactive: 0.071 | inactive: 0.034 | inactive: -0.01 | inactive: -0.004 | inactive: -0.011 | inactive: -0.002 | inactive: -0.079
GOT1 (UniProt P17174) | inactive: 0.004 | inactive: 0.051 | inactive: -0.011 | inactive: -0.02 | inactive: 0.01 | inactive: -0.021 | inactive: -0.003 | inactive: 0.005 | inactive: 0.005 | inactive: -0.005 | inactive: -0.012 | inactive: -0.023 | inactive: 0.011 | inactive: -0.022 | inactive: -0.007 | inactive: 0.051 | inactive: 0.007 | inactive: -0.007 | inactive: 0.111 | inactive: -0.009

Looked up above.
For log2 fold change [6], GOT1 (UniProt P17174) has inactive: -0.009
For log2 fold change (crizotinib), GMFB (UniProt P60983) has inactive: 0.041
